{"source": "PubChem BioAssay AID1053208, Peter MacCallum Cancer Centre | 2014", "purpose": "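Genes whose silencing cuts survival of bone tumour cells only with doxorubicin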 (primary screen)", "cells": "mouse osteosarcoma cells, early-passage culture from an engineered mouse model of fibroblastic bone tumour", "reagent": "siRNA pool against mouse genes, 40 nM", "timing": "about 120 h (48 h before drug, then 72 h with drug)", "treatment": "doxorubicin 100 nM for 72 h, roughly 30-40% inhibitory dose", "read-out": "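Luminescent ATP signal taken as viability with or without 100 nM doxorubicin for 72 h; mean of two wells set against non-targeting siRNA and turned into robust z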", "direction": "viability z-score with doxorubicin: higher = more viable cells under doxorubicin; viability z-score without drug: higher = more viable cells with knock-down alone", "rule for the call": "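Called active if knock-down leaves viability unchanged without drug (z within -2 to 2) but lowers it with doxorubicin (z at or under -2)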", "note": "The deposit covers about 17,000 reagents; this is a random part of them. Of all reagents, 788 (4.7%) were called active. 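Calls rest on z-score classes alone; an extra cut-off of viability at most 70% of control was not applied to them.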 Entries without a mark were called inactive. Reagents against one gene are numbered here. Further read-outs or replicates are left out here."}
{"target gene": "Tph2 (tryptophan hydroxylase 2)", "reagent no.": 1, "combined z-score class": "no change with or without drug", "viability z-score with doxorubicin": 0.45, "viability z-score without drug": -0.17}
{"target gene": "Fam50a (family with sequence similarity 50, member A)", "reagent no.": 1, "combined z-score class": "no change with or without drug", "viability z-score with doxorubicin": 1.35, "viability z-score without drug": 0}
{"target gene": "Zc3h11a (zinc finger CCCH type containing 11A)", "reagent no.": 1, "combined z-score class": "no change with or without drug", "viability z-score with doxorubicin": -0.56, "viability z-score without drug": 0.51}
{"target gene": "Or8s8 (olfactory receptor family 8 subfamily S member 8)", "reagent no.": 1, "combined z-score class": "no change with or without drug", "viability z-score with doxorubicin": -1.12, "viability z-score without drug": -1.52}
{"target gene": "Tbx18 (T-box18)", "reagent no.": 1, "combined z-score class": "high cell count without drug only", "viability z-score with doxorubicin": -0.45, "viability z-score without drug": 2.53}
{"target gene": "Tmeff1", "reagent no.": 1, "combined z-score class": "high cell count with doxorubicin only", "viability z-score with doxorubicin": 2.25, "viability z-score without drug": 1.85}
{"target gene": "Or5ak24 (olfactory receptor family 5 subfamily AK member 24)", "reagent no.": 1, "combined z-score class": "no change with or without drug", "viability z-score with doxorubicin": -0.45, "viability z-score without drug": -0.51}
{"target gene": "Rbm25 (RNA binding motif protein 25)", "reagent no.": 1, "combined z-score class": "no change with or without drug", "viability z-score with doxorubicin": 0.34, "viability z-score without drug": 1.85}
{"target gene": "Rbm25 (RNA binding motif protein 25)", "reagent no.": 2, "combined z-score class": "no change with or without drug", "viability z-score with doxorubicin": 0.45, "viability z-score without drug": -1.18}
{"target gene": "Ppil3 (peptidylprolyl isomerase (cyclophilin)-like 3)", "reagent no.": 1, "combined z-score class": "no change with or without drug", "viability z-score with doxorubicin": 1.57, "viability z-score without drug": 0.51}
{"target gene": "Ugp2 (UDP-glucose pyrophosphorylase 2)", "reagent no.": 1, "combined z-score class": "no change with or without drug", "viability z-score with doxorubicin": 0.34, "viability z-score without drug": 0.51}
{"target gene": "Dlgap5 (DLG associated protein 5)", "reagent no.": 1, "combined z-score class": "no change with or without drug", "viability z-score with doxorubicin": 1.24, "viability z-score without drug": 0.51}
{"target gene": "Rhbdl1 (rhomboid like 1)", "reagent no.": 1, "combined z-score class": "low cell count with doxorubicin only (active)", "viability z-score with doxorubicin": -4.27, "viability z-score without drug": -1.52}
{"target gene": "Aldh3a1 (aldehyde dehydrogenase family 3, subfamily A1)", "reagent no.": 1, "combined z-score class": "no change with or without drug", "viability z-score with doxorubicin": 0, "viability z-score without drug": -0.84}
{"target gene": "Ribc1 (RIB43A domain with coiled-coils 1)", "reagent no.": 1, "combined z-score class": "no change with or without drug", "viability z-score with doxorubicin": -0.22, "viability z-score without drug": 0.84}
{"target gene": "Ufm1 (ubiquitin-fold modifier 1)", "reagent no.": 1, "combined z-score class": "no change with or without drug", "viability z-score with doxorubicin": -0.67, "viability z-score without drug": 0.17}
{"target gene": "4930550C14Rik (RIKEN cDNA 4930550C14 gene)", "reagent no.": 1, "combined z-score class": "no change with or without drug", "viability z-score with doxorubicin": -0.56, "viability z-score without drug": -1.18}
{"target gene": "Raet1d (retinoic acid early transcript delta)", "reagent no.": 1, "combined z-score class": "no change with or without drug", "viability z-score with doxorubicin": 0.67, "viability z-score without drug": -1.69}
{"target gene": "Vezt (vezatin, adherens junctions transmembrane protein)", "reagent no.": 1, "combined z-score class": "no change with or without drug", "viability z-score with doxorubicin": 0.11, "viability z-score without drug": 0.67}
{"target gene": "Tmc2 (transmembrane channel-like gene family 2)", "reagent no.": 1, "combined z-score class": "low cell count with doxorubicin only (active)", "viability z-score with doxorubicin": -2.14, "viability z-score without drug": -1.18}
{"target gene": "Adam30 (a disintegrin and metallopeptidase domain 30)", "reagent no.": 1, "combined z-score class": "no change with or without drug", "viability z-score with doxorubicin": 0.9, "viability z-score without drug": 0.84}
{"target gene": "2210408I21Rik (RIKEN cDNA 2210408I21 gene)", "reagent no.": 1, "combined z-score class": "high cell count with doxorubicin only", "viability z-score with doxorubicin": 2.59, "viability z-score without drug": 1.35}
{"target gene": "Atat1 (alpha tubulin acetyltransferase 1)", "reagent no.": 1, "combined z-score class": "no change with or without drug", "viability z-score with doxorubicin": 0.22, "viability z-score without drug": 1.85}
{"target gene": "Pja2 (praja ring finger ubiquitin ligase 2)", "reagent no.": 1, "combined z-score class": "no change with or without drug", "viability z-score with doxorubicin": -1.35, "viability z-score without drug": 0}
{"target gene": "Tlx2 (T cell leukemia, homeobox 2)", "reagent no.": 1, "combined z-score class": "no change with or without drug", "viability z-score with doxorubicin": -0.45, "viability z-score without drug": 1.01}
{"target gene": "Crlf1 (cytokine receptor-like factor 1)", "reagent no.": 1, "combined z-score class": "no change with or without drug", "viability z-score with doxorubicin": -1.46, "viability z-score without drug": -0.17}
{"target gene": "4930429B21Rik (RIKEN cDNA 4930429B21 gene)", "reagent no.": 1, "combined z-score class": "no change with or without drug", "viability z-score with doxorubicin": 0.34, "viability z-score without drug": 1.18}
{"target gene": "Nfkbib", "reagent no.": 1, "combined z-score class": "no change with or without drug", "viability z-score with doxorubicin": 1.69, "viability z-score without drug": 0.17}

Limited to “combined z-score class”, for 3 of the entries above:
Rhbdl1 (rhomboid like 1): low cell count with doxorubicin only (active)
Aldh3a1 (aldehyde dehydrogenase family 3, subfamily A1): no change with or without drug
Ribc1 (RIB43A domain with coiled-coils 1): no change with or without drug
